These are yes or no findings as the source states them, for the method shown. In cells and extracts the contact can be indirect. Some binding calls cover weakened binding; strength is not graded here.

Chains of the proteins cited; added tags and fusions are not shown.
UniProt Q9H6I2: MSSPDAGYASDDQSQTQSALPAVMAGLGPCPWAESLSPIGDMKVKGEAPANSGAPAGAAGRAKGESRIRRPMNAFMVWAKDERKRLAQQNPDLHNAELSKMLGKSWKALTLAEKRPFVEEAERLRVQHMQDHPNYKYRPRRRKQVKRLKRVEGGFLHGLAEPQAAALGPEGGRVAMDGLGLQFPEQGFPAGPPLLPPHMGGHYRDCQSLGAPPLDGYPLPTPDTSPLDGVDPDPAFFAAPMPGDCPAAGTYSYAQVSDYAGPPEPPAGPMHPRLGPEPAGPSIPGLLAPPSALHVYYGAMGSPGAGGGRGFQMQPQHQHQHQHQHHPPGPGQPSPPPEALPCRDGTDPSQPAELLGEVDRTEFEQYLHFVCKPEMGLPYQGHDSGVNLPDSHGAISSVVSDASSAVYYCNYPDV
UniProt P35222: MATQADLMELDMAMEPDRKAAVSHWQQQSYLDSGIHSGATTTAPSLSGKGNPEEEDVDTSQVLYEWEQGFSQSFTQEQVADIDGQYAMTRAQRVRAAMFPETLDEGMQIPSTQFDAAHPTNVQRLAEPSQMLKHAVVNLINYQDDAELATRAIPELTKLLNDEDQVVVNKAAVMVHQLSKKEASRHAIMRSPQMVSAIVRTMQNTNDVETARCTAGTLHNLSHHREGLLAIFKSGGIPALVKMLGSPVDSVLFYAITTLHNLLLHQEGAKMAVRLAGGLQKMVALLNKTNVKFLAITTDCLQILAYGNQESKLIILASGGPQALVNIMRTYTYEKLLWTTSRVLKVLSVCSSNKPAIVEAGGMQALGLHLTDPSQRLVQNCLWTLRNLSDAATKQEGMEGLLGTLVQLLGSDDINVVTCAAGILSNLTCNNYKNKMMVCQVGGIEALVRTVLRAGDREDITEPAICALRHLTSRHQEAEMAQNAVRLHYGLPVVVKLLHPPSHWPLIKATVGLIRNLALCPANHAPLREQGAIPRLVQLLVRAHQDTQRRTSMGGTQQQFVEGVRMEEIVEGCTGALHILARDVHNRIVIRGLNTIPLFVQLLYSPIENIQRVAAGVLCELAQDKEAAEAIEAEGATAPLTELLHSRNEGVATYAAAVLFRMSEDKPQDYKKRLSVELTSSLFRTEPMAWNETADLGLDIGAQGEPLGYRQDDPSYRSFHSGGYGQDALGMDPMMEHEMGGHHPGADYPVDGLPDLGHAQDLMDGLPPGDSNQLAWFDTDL
UniProt P51532: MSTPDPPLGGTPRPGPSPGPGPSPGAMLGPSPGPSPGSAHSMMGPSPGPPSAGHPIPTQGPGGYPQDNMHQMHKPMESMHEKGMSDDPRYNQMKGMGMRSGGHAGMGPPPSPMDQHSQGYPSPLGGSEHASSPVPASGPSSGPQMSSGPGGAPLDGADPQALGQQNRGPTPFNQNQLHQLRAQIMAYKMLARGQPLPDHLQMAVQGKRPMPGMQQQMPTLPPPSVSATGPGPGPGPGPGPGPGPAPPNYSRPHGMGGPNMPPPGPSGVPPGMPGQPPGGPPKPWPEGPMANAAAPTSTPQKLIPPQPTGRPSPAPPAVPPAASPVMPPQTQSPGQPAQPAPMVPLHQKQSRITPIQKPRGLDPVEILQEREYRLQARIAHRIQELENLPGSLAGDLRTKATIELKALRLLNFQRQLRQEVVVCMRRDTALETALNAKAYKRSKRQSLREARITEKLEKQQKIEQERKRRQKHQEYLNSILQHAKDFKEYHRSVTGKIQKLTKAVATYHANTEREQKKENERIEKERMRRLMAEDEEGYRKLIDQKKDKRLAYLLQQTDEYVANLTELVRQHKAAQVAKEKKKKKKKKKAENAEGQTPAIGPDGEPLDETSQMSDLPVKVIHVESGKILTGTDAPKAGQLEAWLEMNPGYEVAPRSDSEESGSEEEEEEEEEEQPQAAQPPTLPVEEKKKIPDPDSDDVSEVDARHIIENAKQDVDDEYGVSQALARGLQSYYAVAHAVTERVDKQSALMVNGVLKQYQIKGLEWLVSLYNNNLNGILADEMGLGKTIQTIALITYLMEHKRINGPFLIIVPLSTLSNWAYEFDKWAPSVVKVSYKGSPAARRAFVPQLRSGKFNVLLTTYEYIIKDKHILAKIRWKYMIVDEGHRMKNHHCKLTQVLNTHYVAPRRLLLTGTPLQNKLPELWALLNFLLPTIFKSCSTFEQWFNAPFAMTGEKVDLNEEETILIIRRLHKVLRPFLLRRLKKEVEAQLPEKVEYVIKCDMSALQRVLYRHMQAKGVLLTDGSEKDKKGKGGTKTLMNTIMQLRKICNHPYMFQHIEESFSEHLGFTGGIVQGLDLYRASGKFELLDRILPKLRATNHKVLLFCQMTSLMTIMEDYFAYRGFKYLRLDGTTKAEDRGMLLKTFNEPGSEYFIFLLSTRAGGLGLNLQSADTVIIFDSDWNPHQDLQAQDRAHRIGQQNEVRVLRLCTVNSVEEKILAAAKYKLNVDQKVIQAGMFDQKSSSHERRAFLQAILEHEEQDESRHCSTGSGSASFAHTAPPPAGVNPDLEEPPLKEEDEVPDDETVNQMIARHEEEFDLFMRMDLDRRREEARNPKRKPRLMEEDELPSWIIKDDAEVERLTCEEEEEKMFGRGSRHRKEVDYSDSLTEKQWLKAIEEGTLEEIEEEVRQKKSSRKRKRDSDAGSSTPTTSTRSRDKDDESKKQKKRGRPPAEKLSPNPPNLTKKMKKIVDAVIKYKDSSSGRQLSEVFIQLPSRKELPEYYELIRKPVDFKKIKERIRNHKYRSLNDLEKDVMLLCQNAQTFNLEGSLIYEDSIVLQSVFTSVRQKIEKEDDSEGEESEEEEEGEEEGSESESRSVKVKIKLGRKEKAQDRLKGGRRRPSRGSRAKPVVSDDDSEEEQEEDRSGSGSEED
UniProt Q9NQB0: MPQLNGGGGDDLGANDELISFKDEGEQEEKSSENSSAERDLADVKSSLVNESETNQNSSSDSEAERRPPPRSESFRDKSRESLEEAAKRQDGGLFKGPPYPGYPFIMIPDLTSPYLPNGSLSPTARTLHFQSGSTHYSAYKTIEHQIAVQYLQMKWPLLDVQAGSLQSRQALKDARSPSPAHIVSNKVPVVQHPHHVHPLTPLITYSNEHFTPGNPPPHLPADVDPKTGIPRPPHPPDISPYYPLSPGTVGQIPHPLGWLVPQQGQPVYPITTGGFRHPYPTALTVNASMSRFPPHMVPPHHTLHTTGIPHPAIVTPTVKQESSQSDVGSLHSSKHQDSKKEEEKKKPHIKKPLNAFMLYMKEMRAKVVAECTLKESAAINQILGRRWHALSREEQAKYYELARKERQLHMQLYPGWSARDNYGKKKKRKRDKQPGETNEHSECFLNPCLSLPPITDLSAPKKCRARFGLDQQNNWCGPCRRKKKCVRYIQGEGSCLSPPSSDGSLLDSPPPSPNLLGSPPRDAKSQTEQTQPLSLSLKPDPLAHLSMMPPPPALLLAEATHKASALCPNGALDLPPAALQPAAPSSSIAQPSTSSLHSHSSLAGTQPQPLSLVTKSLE

Assay [1] concerns the target SOX17 (human (endogenous in hPSC-derived DE cells)) (UniProt Q9H6I2). Description: co-IP.
The target of assay [2] is ß-catenin (CTNNB1) (human (endogenous in hPSC-derived DE cells)) (UniProt P35222). Kind of assay: co-IP.

On to BRG1 (from UniProt P51532 1-1647), for which the binding result in assay [1] and in assay [2] was “binds” each time.

On to SOX17 (from UniProt Q9H6I2 1-414), for which, in assay [2], the binding entry is given as “binds”.

On to TCF7L2 (from UniProt Q9NQB0 1-619), for which the binding result in assay [1] is given as “no binding”.

With “ß-catenin (CTNNB1) (from UniProt P35222 1-781)”, in assay [1], the binding result is “binds”.

The record behind these values is publication doi:10.1101/2021.08.25.457694.
